Reference: paper PMC9463143
Results are given in words; binding and its absence hold for the method and conditions named. Binding seen in cells or lysates may run through a third protein. These calls come from enrichment with a bait or labelling near it, and not all partners need be listed. Tags and fused reporters may be left off the sequences shown.

T1: flag::mCherry::GLH-1 (C. elegans) (UniProt P34689)
T1 sequence: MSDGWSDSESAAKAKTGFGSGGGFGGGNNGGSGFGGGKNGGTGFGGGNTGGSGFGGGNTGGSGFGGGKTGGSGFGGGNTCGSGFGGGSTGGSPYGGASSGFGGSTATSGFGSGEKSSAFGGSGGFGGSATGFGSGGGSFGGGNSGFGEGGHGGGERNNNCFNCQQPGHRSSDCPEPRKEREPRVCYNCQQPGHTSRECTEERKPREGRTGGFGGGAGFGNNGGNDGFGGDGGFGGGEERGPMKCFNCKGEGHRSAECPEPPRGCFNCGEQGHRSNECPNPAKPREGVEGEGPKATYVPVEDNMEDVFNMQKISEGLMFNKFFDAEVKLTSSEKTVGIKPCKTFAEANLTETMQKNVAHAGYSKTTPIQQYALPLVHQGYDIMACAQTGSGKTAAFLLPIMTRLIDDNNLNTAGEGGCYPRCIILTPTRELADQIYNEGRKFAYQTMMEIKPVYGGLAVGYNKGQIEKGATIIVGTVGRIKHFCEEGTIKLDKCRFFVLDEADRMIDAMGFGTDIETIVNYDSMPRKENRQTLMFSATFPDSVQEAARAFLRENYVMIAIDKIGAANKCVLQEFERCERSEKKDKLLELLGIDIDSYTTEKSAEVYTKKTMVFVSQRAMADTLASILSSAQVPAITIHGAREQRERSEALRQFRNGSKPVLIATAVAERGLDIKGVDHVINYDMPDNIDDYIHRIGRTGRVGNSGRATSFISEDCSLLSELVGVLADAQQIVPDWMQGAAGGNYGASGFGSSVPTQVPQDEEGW


Target: T1, flag::mCherry::GLH-1 (C. elegans)
Test: affinity purification with mass spectrometry; worms crosslinked with 2 mM DTME for 30 min at room temperature; lysate in 20 mM Tris-HCl pH 7.5, 150 mM NaCl, 2.5 mM MgCl2, 0.5% NP-40; flag::mCherry::GLH-1 captured on anti-Flag magnetic beads 2 h at 4 °C; de-crosslinked with 10 mM DTT; LC-MS/MS; wild type (N2) as control; two biological replicates

Row | Binder | binding
1 | PIWI PRG-1 (protein, UniProt P90786 1-824) MASGSGRGRGRGSGSNNSGGKDQKYLGTIQPDLFIRQQGQSKTGSSGQPQKCFANFIPIEMTQSDYSIYQYHVEFEPTVDSKANREKMLRDNNVTDEIGHHFVFDGMILYLKEEWEQNQMIEVQHPIDRSLICIRFKQTNRFLVDDPQTINIFNTIIRRSFDALQLTQLGRNYFNWGDSRAVPDYNMSILPGYETAIRMYEENFMLCVENRFKMVREESMYILFHKELRSCQNNPQRVQEKMNEMYGGTTIITRYNNKLHRYTRLDYSISPLSEFVKDGQSITLKEYFKNQYGIEITVDDQPIIISEGKPKQPGEPPQVSYIVPELCFPTGLTDEMRKDFKMMKEIAKHTRMSPQQRLVESRKLIVDLSKNEKVMECFKYWGISLGQDLANVQARVLKSEPLQGKKTYEGKQAEWARGVKECGIYRGSNMTNWIVIGPGSGNSGLLSQKFIEEARRLGKILQVQLGEPMCVPIRGISPNDYLEGVKGAIKQVDGEDIHMLVVMLADDNKTRYDSLKKFLCVECPIPNQCVNLRTLAGKSKDGGENKNLGSIVLKIVLQMICKTGGALWKVNIPLKNTMIVGYDLYHDSTLKGKTVGACVSTTSNDFTQFYSQTRPHENPTQLGNNLTHFVRKALKQYYDSNDQTLPSRLILYRDGAGDGQIPYIKNTEVKLVRDACDAVTDKAAELSNKVQEKIKLAFIIVTKRVNMRILKQGSSLDNAINPQPGTVVDTTVTRPERMDFYLVPQFVNQGTVTPVSYNIIHDDTDLGPDKHQQLAFKLCHLYYNWQGTVRVPAPCQYAHKLAFLTAQSLHDDANGCLRDKLFFL | binds
2 | DEPS-1 (protein, UniProt Q9N303 1-619) MSERQSKYFDYQGIVISSTGQDNQDSETDLVYLIQAHGKAAPKNIMYGVSKCAFVPTNLERNFDNIEEAKNLERRSKIPLKFGEVILWNESDCDHDKRIILHIKREKPIYEASSSRNGLILKVGGVIQPTSTTSFWTPLCTVTMPETEATRAEPDVWLYAWIRFETTMKSGLDPFNMTATFESFDSCDPSDQARVCEAPWNAGSPDSKFGVWRPDPKPADSDDEIDIEPREGWHLPEDKWAEVIKMQLGLYVGERLLICKELSQFDFIIPLQKPFSRGTDKTLIYPAVGEYFHFSAIWSMQHNGFLIYELQPVPLLRQHVTSVNGNLLTRVVPASIRGLFVDKEGTLGLIDDPHHLLSFFEFHPAGYEFLKAMAEVRAVRTSENKSVRYRIVRTSGMSIFENWLRDTQFVVGPVKGIRINEDTVICAKHPNVYFKIPNNLKEGIPIGGGVQFVGKRQAGVDSEIMITECSPCPAFTCKNYSVSGDTRLFQVYLKPNCDHEQLAESDSMGFVDFRELETPCRGKFLAWVRESITVNDCRRAATIMEVCSTAICPPLIAMSANSSRATSARTTPAGSSIGSRSSIQSRASAATSVSSNRFVGPSSRRTPSGTPQSSTSSRV | binds
